The text below walks through data of article doi:10.1101/2025.10.31.685654v2 (biorxiv, 2026).

The test system of this assay is T1, Dm-DopC1.
T1 construct: full-length homomeric pentamer expressed from cRNA in Xenopus laevis oocytes; predicted signal peptide residues 1-26
Nature of the assay: two-electrode voltage clamp, Xenopus oocytes. The assay is classed as cell-based, Daphnia magna. The settings on record: antagonist against 50 µM dopamine; ND96 pH 7.5, -60 mV; 4-parameter fit, bottom = 0. (In general: Two-electrode voltage clamp holds a large cell at a set potential and records current.)

In the case of `CC(C)NCC(O)COc1cccc2ccccc12` (stereo not shown) [propranolol], the half-maximal inhibitory concentration (IC50) – broadly, the concentration needed to halve the response being measured – stood at 100 µM.
